Measurements from publication PMC11330772, “Unveiling the kinetic versatility of aryl-alcohol oxidases with different electron acceptors” (Frontiers in Bioengineering and Biotechnology, 2024).

System: PeAAO
Assay: Stopped-flow oxidative half-reaction (flavin reoxidation by O2 or BQ)
Conditions: PeAAO versus BaAAO

SMILES | PeAAO more efficient at reducing the acceptor than BaAAO (reoxidation rates)
O=O [O2] | up to 6 fold
O=C1C=CC(=O)C=C1 [BQ, 1,4-benzoquinone] | ≤ 9 fold
